Assay results published in patent US20230032473A1, “NAD(H) NANOPARTICLES AND METHODS OF USE” (Wisconsin Alumni Research Foundation, priority 2021, published 2023).
At least one compound was matched to its structure with a doubt left.

Test system: MRSA and P. aeruginosa
Assay: MRSA and P. aeruginosa-induced polymicrobial blood infection model, survival
Assay type: in vivo, mice
Conditions: one IV injection 6 h after infection; 20 mg/kg NAD+ and 10 mg/kg Rif

Question: `CO[C@H]1/C=C/O[C@@]2(C)Oc3c(C)c(O)c4c(O)c(c(/C=N/N5CCN(C)CC5)c(O)c4c3C2=O)NC(=O)/C(C)=C\C=C\[C@H](C)[C@H](O)[C@@H](C)[C@@H](O)[C@@H](C)[C@H](OC(C)=O)[C@@H]1C` [free Rif, rifampicin] was tested. Which “mice survival after two weeks” value did it give?
Answer: The value was “did not significantly change the survival rate”.

Question: What about the “mice survival compared with the PBS group” value of the same compound?
Answer: Its value is “prolonged mice survival”.
